According to doi:10.1101/812149:
These are yes or no findings as the source states them, for the method shown. In cells and extracts the contact can be indirect.

The chains behind the UniProt entries cited, without tags or fusion partners.
UniProt P43694: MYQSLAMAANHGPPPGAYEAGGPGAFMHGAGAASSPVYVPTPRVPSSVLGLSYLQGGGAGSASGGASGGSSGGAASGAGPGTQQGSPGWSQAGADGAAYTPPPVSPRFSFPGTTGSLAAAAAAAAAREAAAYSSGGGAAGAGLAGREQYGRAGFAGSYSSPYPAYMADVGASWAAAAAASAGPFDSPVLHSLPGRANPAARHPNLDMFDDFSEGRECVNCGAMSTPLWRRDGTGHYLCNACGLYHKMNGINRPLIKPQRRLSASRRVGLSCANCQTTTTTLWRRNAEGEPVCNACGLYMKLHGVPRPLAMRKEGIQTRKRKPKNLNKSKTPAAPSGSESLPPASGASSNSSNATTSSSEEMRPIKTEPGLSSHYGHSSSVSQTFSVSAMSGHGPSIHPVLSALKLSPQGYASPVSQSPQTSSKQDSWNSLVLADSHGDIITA
UniProt Q13887: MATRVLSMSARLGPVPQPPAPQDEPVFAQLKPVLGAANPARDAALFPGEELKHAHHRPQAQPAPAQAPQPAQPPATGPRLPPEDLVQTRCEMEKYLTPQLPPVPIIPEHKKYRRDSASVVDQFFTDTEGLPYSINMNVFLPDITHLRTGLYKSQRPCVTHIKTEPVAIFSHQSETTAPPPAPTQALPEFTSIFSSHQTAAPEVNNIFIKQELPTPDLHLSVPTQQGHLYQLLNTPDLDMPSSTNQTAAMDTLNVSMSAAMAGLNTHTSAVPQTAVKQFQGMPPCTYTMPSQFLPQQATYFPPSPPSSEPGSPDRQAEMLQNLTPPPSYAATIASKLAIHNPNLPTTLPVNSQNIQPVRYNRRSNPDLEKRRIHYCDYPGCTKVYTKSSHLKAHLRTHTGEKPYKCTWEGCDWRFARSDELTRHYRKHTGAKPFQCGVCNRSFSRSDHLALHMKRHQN
UniProt Q92908: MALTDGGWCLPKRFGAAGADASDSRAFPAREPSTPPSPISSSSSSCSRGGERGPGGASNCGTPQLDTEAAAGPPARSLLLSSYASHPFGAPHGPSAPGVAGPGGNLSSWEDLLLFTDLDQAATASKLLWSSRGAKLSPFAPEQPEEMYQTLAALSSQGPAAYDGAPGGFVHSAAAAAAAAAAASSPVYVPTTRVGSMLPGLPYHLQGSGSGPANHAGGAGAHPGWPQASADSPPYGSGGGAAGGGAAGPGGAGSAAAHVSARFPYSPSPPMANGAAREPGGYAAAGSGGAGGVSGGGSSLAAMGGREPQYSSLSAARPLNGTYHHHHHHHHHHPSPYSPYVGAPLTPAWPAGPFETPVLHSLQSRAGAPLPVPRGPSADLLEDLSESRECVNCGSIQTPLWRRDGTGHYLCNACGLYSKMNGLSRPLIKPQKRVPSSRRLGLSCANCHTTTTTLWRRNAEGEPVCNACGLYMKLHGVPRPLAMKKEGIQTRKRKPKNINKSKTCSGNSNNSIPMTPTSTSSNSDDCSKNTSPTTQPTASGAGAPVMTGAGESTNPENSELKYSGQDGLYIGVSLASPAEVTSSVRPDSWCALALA

B1: HNF4A (protein, UniProt P41235 1-474)
chain: MRLSKTLVDMDMADYSAALDPAYTTLEFENVQVLTMGNDTSPSEGTNLNAPNSLGVSALCAICGDRATGKHYGASSCDGCKGFFRRSVRKNHMYSCRFSRQCVVDKDKRNQCRYCRLKKCFRAGMKKEAVQNERDRISTRRSSYEDSSLPSINALLQAEVLSRQITSPVSGINGDIRAKKIASIADVCESMKEQLLVLVEWAKYIPAFCELPLDDQVALLRAHAGEHLLLGATKRSMVFKDVLLLGNDYIVPRHCPELAEMSRVSIRILDELVLPFQELQIDDNEYAYLKAIIFFDPDAKGLSDPGKIKRLRSQVQVSLEDYINDRQYDSRGRFGELLLLLPTLQSITWQMIEQIQFIKLFGMAKIDNLLQEMLLGGSPSDAPHAHHPLHPHLMQEHMGTNVIVANTMPTHLSNGQMCEWPRPRGQAATPETPQPSPPGGSGSEPYKLLPGAVATIVKPLSAIPQPTITKQEVI
B2: HNF4A, P41235 1-474 (protein)
chain: B1 chain
B3: ELF3 (protein, UniProt P78545 1-371)
chain: MAATCEISNIFSNYFSAMYSSEDSTLASVPPAATFGADDLVLTLSNPQMSLEGTEKASWLGEQPQFWSKTQVLDWISYQVEKNKYDASAIDFSRCDMDGATLCNCALEELRLVFGPLGDQLHAQLRDLTSSSSDELSWIIELLEKDGMAFQEALDPGPFDQGSPFAQELLDDGQQASPYHPGSCGAGAPSPGSSDVSTAGTGASRSSHSSDSGGSDVDLDPTDGKLFPSDGFRDCKKGDPKHGKRKRGRPRKLSKEYWDCLEGKKSKHAPRGTHLWEFIRDILIHPELNEGLMKWENRHEGVFKFLRSEAVAQLWGQKKKNSNMTYEKLSRAMRYYYKREILERVDGRRLVYKFGKNSSGWKEEEVLQSRN

Key:
Assay in all cases: co-IP
[1] = biological target: GATA4 (human (endogenous in Eso26)) (UniProt P43694)
[2] = biological target: KLF5 (human (endogenous in Eso26)) (UniProt Q13887)
[3] = biological target: GATA6 (human (endogenous in Eso26)), Q92908; conditions: remark: other sources report otherwise
[4] = biological target: GATA6 (human (endogenous in Eso26)) (UniProt Q92908)

Binder | binding [1] | binding [2] | binding [3] | binding [4]
B1 | no binding | no binding | – | –
B2 | – | – | no binding | –
B3 | no binding | no binding | – | no binding
